Some of these results come from one statement about several compounds together.
System: tobacco plants transformed to express Pseudomonas HPPD
Assay: Glasshouse spray test, visible damage
Type: in vivo

CS(=O)(=O)c1cc(C(F)(F)F)ccc1C(=O)c1cnoc1C1CC1 [isoxaflutole, 5-cyclopropyl-4-(2-methylsulphonyl-4-trifluoromethylbenzoyl)-isoxazole, reference compound]
fold more tolerant of the named herbicide than of mesotrione or Structure II: 2-6 fold

From patent publication US20090172831A1, “Methods for the production of plants resistant to HPPD herbicides” (Syngenta Limited, priority 2000, published 2009)
